Measurements as given in PubChem BioAssay AID2417 (National Center for Advancing Translational Sciences (NCATS), 2010).
Hit rate of the full screen: of about 140,000 compounds, about 4,300 (3.1%) were called active. This list was built around the results that the source calls inconclusive (neither active nor inactive); the mix of calls is not that of the screen.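 Rule for the calls: active = readout at or below -70, meaning at least 70% loss of cells showing the perinucleolar compartment, a nuclear body marking cancer cells; inconclusive = readout between -30 and a set limit; inactive = the rest.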

assay: High Content Assay for Compounds that inhibit the Assembly of the Perinucleolar Compartment; conditions: PC3M PTB-GFP, PNC prevalence imaging, 16 h; at 10 µM; stronger effect = lower value;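 note: plate controls were DMSO wells for no effect and camptothecin positive control wells for full effect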
How it was run: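 PC3M cells stably expressing PTB-GFP, 750–1000 cells/well, treated 16 h at 37 °C with compound (23 nl of library stock), in duplicate. After paraformaldehyde fixation and Hoechst stain, imaged at 20x; PNC prevalence scored by image analysis.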

| Structure (SMILES) | activity change (PNC), negative = inhibition |
| --- | --- |
| COc1ccc(N(CC(=O)Nc2ccc(C)c(C)c2)S(=O)(=O)c2c(C)n[nH]c2C)cc1 | inconclusive: -46% |
| COc1ccc2nc(SCC(=O)Nc3ccc4sc(C)nc4c3)c(C#N)cc2c1 | inconclusive: -37.5% |
| Cc1cc(C)c(C)c(OCC(=O)NCc2nc(-c3ccccc3)no2)c1 | inconclusive: -40.6% |
| COc1ccccc1-n1cnc(N)c1C(C)=O | inconclusive: -31.6% |
| Cn1cc(C=C2C(=O)CC(C)(C)CC2=O)c2ccccc21 | inactive: 15.5% |
| CS(=O)(=O)N1CCN(C(=S)NCc2ccc(F)cc2)CC1 | inactive: -15.7% |
| Cc1cccc(C)c1NC(=O)C(c1ccc([N+](=O)[O-])cc1)N(C)C(=O)c1ccccn1 (stereo unspecified) | inactive: 23.8% |
| Cc1nn(C)c(C)c1S(=O)(=O)N(CC(=O)N1CCc2ccccc2C1)c1ccc(C(C)C)cc1 | inactive: 32% |
| Cc1ccccc1NC(=O)C1CCC(C)(C(=O)O)C1(C)C (stereo unspecified) | inactive: 58.6% |
| CCOC(=O)N1CCN(C(=O)c2ccc(C#CC3(O)CCCCC3)cc2)CC1 | inconclusive: -52% |
| CCC(NC(=O)Nc1nccs1)(C(F)(F)F)C(F)(F)F | inconclusive: -34.9% |
| COc1ccc(/C=N/NC(=O)CSc2n[nH]c(=O)[nH]c2=O)cc1 | inactive: 3.57% |
| Cc1onc(-c2ccccc2)c1C(=O)Nc1c(C)n(C)n(-c2ccccc2)c1=O | inconclusive: -36.6% |
| CCCCc1ccc(NC(=O)CSC2=C(C#N)C(c3ccco3)C3=C(CCCC3=O)N2)cc1 (stereo unspecified) | inconclusive: -30.2% |
| CC(=O)N(C)c1ccc(NS(=O)(=O)Cc2ccccc2)cc1 | inactive: 28.7% |
| COc1cc(/C=N/NC(=O)Nc2ccccc2)ccc1OC(C)=O | inconclusive: -58.7% |
| Cc1ccccc1Cn1nnc(-c2cccc(C(=O)O)c2)n1 | inconclusive: -30.3% |
| Cc1ccc(-c2nc(CS(=O)CC(=O)NC3CCCC3)c(C)o2)cc1 (stereo unspecified) | active: -106% |
| COC(=O)c1cc2nc(-c3ccc(OC)c(OC)c3)cc(C(F)(F)F)n2n1 | inconclusive: -46.7% |
| O=C(c1nn2c(C(F)(F)F)cc(-c3ccccc3)nc2c1Cl)N1CCOCC1 | inconclusive: -75.4% |
| Fc1cccc(Cl)c1CNCc1ccccc1Cl | inconclusive: -55.9% |
| CSc1cccc(NC(=O)C2CCCN(S(=O)(=O)c3cnc[nH]3)C2)c1 (stereo unspecified) | inconclusive: -32.4% |
| COc1cc(NS(=O)(=O)c2ccc(C)cc2C)cc(OC)c1OC | inconclusive: -44.8% |

| Structure (SMILES) | activity change (PNC), negative = inhibition |
| --- | --- |
| CCCC(=O)NC(C)c1nc2ccccc2n1C (stereo unspecified) | inconclusive: -35.2% |
| COC(=O)CSc1nc(C2CC2)nc2ccccc12 | inconclusive: -38.6% |
| CCCc1[nH]nc2c1C(C1CC=CCC1)C(C#N)=C(N)O2 (stereo unspecified) | inactive: 26.7% |
| COc1ccc2cc(C(c3nnnn3Cc3ccc(F)cc3)N3CCCCCC3)c(=O)[nH]c2c1 (stereo unspecified) | inconclusive: -44.6% |
| Cc1cccc(C)c1NC(=O)c1sc(Cl)nc1C | inactive: -19.1% |
| Cc1ccc(CCNC(=O)C2CCCN(S(=O)(=O)c3cnc[nH]3)C2)cc1 (stereo unspecified) | inconclusive: -52.1% |
| COCc1cc(=O)[nH]c(Nc2nc3ccc(C)cc3o2)n1 | inconclusive: -35.1% |
| COc1cccc(Cn2c(NCC(C)C)nc3c2c(=O)n(C)c(=O)n3C)c1 | inconclusive: -43.4% |
| COc1ccccc1N1CCN(C(c2cc3ccc(C)cc3[nH]c2=O)c2nnnn2C2CCCC2)CC1 (stereo unspecified) | inconclusive: -70.9% |
| CC(C)(C)OC(=O)N[C@H](Cc1ccccc1)C(=O)N1CCC(C(=O)O)CC1 | active: -83.4% |
| CCOC(=O)COc1ccc2nsnc2c1Cl | inactive: 20.2% |
| Cc1ccc(-n2nnnc2SCC(=O)c2ccc3c(c2)NC(=O)CO3)c(C)c1 | inactive: 5.12% |
| Cc1ccc2nc(NC(=O)CSc3nc4ccccc4o3)sc2c1 | inconclusive: -49.6% |
| c1ccc2c(c1)nc(NCCN1CCOCC1)c1nncn12 | inconclusive: -30.5% |
| O=C1C2CC=CCC2C(=O)N1c1ccc(Cc2ccncc2)cc1 (stereo unspecified) | inconclusive: -52% |
| CCOC(=O)CSC1=NC(=O)/C(=C\c2ccc(OC(C)=O)cc2)S1 | inactive: 4.41% |
| Cc1ccc(NC2=NC(C(=O)Nc3ccc(C)c(C)c3)CC(=O)N2)cc1 (stereo unspecified) | inconclusive: -33% |
| COCCCn1c(SCC(=O)NCc2ccccc2)nc2ccccc2c1=O | active: -100% |
| Nc1n[nH]c(-c2ccccc2[N+](=O)[O-])n1 | inconclusive: -70.6% |
| CCC1CCCN1Cn1cnc2c([nH]c3ccc(OC)cc32)c1=O (stereo unspecified) | inconclusive: -50.8% |
| O=C(Cn1cnnn1)Nc1ccccc1Cc1ccccc1 | active: -100% |
| Cc1ccc(-c2csc3nc(SCC(=O)N(C)C)n(Cc4ccccc4)c(=O)c23)cc1 | inconclusive: -33.6% |
| CCOC(=O)c1sc(NC(=O)CCCn2nc([N+](=O)[O-])c(Cl)c2C)c(C(=O)OCC)c1C | inactive: 37.4% |

Compounds listed so far containing a thiophene ring, fused or not:

| Structure (SMILES) | activity change (PNC), negative = inhibition |
| --- | --- |
| Cc1ccc(-c2csc3nc(SCC(=O)N(C)C)n(Cc4ccccc4)c(=O)c23)cc1 | inconclusive: -33.6% |
| CCOC(=O)c1sc(NC(=O)CCCn2nc([N+](=O)[O-])c(Cl)c2C)c(C(=O)OCC)c1C | inactive: 37.4% |
